Data: paper PMC7994586, “The box C/D snoRNP assembly factor Bcd1 interacts with the histone chaperone Rtt106 and controls its transcription dependent activity” (Nature Communications, 2021)

Biological target: T1, full-length Bcd1p (Bcd1pFL) fused to the Gal4 binding domain (BD) (S. cerevisiae) (UniProt P38772)
T1 sequence: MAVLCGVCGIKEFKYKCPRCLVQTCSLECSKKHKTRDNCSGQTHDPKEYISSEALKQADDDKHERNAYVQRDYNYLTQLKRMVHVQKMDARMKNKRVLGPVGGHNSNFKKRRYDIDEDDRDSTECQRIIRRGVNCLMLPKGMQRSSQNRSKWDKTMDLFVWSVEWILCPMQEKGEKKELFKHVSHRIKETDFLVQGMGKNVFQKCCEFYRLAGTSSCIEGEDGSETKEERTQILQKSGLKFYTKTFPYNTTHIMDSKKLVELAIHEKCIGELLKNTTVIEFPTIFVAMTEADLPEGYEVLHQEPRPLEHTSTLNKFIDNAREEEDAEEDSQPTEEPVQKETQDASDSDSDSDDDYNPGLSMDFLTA
Assay: two-hybrid; Bcd1pFL on Gal4 BD (pGBKT7, bait), partners on Gal4 AD (pACTII, prey); diploids on Leu-Trp-His- medium with increasing 3-AT, growth after three days at 30 °C

Row | binding | Substance
1 | no binding | Pob3p-M fused to the Gal4 activation domain (S. cerevisiae) (domain or fragment)
2 | no binding | Spt16p-M fused to the Gal4 activation domain (S. cerevisiae) (domain or fragment)

These are yes or no findings as the source states them, for the method shown. Where a sequence is shown, tags or fusion partners need not be part of it.
